Data as given in patent US12458629B2, “Method for treating nonsense mutation mediated duchenne muscular dystrophy in pediatric patients” (PTC THERAPEUTICS, INC., priority 2019, dated 2025).

Experiment: Palatability questionnaire, NCT02819557
Set-up: species or system human
Conditions: number (%) of respondents

Question: Which “respondents reporting problems giving the medication to the patient” value does the source give for `O=C(O)c1cccc(-c2noc(-c3ccccc3F)n2)c1` [ataluren, 3-[5-(2-fluoro-phenyl)-[1,2,4]oxadiazol-3-yl]-benzoic acid] here?
Answer: Its value is 2 (14.3%).

Question: And the “respondents who disagreed that the medication was pleasant” value?
Answer: Its value is 2 (14.3%).

Question: What about the “respondents who agreed or strongly agreed that the medication was pleasant based on the child's reaction” value (14 patients, granules for suspension) of the same compound?
Answer: Its value is 10 (71.5%).
